PubChem BioAssay AID1159584 – Peter MacCallum Cancer Centre – 2016
The whole screen tested about 18,000 reagents; this is a part drawn at random. Not all columns of the deposit are shown. Not stated in the record: the amount of reagent, the time to read-out.

Screen: 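Genes whose loss is lethal only together with E-cadherin loss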 (primary screen)
Cell system: human MCF10A breast epithelial cells, parental and CDH1-null
Reagent: siRNA against human genes
Read-out: 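ATP luminescence (CellTiter-Glo) viability per line relative to mean mock wells over all plates, and the ratio of CDH1-null to parental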
Reading the numbers: CDH1-null / parental viability ratio: higher = CDH1-null cells survive relatively better than parental

{"gene knocked down": "JMJD1C", "CDH1-null / parental viability ratio": 0.88}
{"gene knocked down": "ELOVL7", "CDH1-null / parental viability ratio": 0.86}
{"gene knocked down": "SSX9P", "CDH1-null / parental viability ratio": 1.23}
{"gene knocked down": "FLOT1", "CDH1-null / parental viability ratio": 1.12}
{"gene knocked down": "BPY2B", "CDH1-null / parental viability ratio": 0.93}
{"gene knocked down": "SPDYC", "CDH1-null / parental viability ratio": 1.21}
{"gene knocked down": "FAM43B", "CDH1-null / parental viability ratio": 1.06}
{"gene knocked down": "MAP3K11", "CDH1-null / parental viability ratio": 1.02}
{"gene knocked down": "SPG21", "CDH1-null / parental viability ratio": 1.05}
{"gene knocked down": "TCN2", "CDH1-null / parental viability ratio": 1.01}
{"gene knocked down": "NSUN7", "CDH1-null / parental viability ratio": 1.07}
{"gene knocked down": "ITGB6", "CDH1-null / parental viability ratio": 0.81}
{"gene knocked down": "IFIT3", "CDH1-null / parental viability ratio": 0.91}
{"gene knocked down": "PSMA5", "CDH1-null / parental viability ratio": 1.45}
{"gene knocked down": "INPP5K", "CDH1-null / parental viability ratio": 1.15}
{"gene knocked down": "TFF2", "CDH1-null / parental viability ratio": 1.05}
{"gene knocked down": "TNFAIP1", "CDH1-null / parental viability ratio": 1.11}
{"gene knocked down": "EPS15L1", "CDH1-null / parental viability ratio": 1.02}
{"gene knocked down": "SAXO4", "CDH1-null / parental viability ratio": 0.9}
{"gene knocked down": "KITLG", "CDH1-null / parental viability ratio": 0.99}
{"gene knocked down": "KLRG1", "CDH1-null / parental viability ratio": 0.92}
{"gene knocked down": "XXYLT1", "CDH1-null / parental viability ratio": 0.81}
{"gene knocked down": "APOC1", "CDH1-null / parental viability ratio": 0.96}
{"gene knocked down": "POLR2D", "CDH1-null / parental viability ratio": 1.19}
{"gene knocked down": "COX11", "CDH1-null / parental viability ratio": 1.01}
{"gene knocked down": "SEC14L1", "CDH1-null / parental viability ratio": 0.94}
{"gene knocked down": "CARD11", "CDH1-null / parental viability ratio": 0.86}
{"gene knocked down": "ARF6", "CDH1-null / parental viability ratio": 0.85}
{"gene knocked down": "ATR", "CDH1-null / parental viability ratio": 1}
{"gene knocked down": "TIGD2", "CDH1-null / parental viability ratio": 1.2}
{"gene knocked down": "LGALS4", "CDH1-null / parental viability ratio": 1.14}
{"gene knocked down": "HSD17B3", "CDH1-null / parental viability ratio": 1.1}
{"gene knocked down": "UBD", "CDH1-null / parental viability ratio": 0.98}
{"gene knocked down": "TMIGD1", "CDH1-null / parental viability ratio": 1.03}
{"gene knocked down": "ZNF80", "CDH1-null / parental viability ratio": 1.4}
